Further values from the same series stand in other lists.
Test system: CHD (fatal CHD, definite non-fatal MI, or revascularization)
Assay: CARE: SNP by pravastatin treatment interaction, logistic regression (synergy index), CHD endpoint
Format: in vivo, human
Excerpt: CARE was a secondary prevention trial and WOSCOPS was a primary prevention trial.
The CHD endpoint was defined in the analyses herein of CARE as a composite endpoint of fatal CHD, definite non-fatal MI, or revascularization, and was defined in the analyses herein of WOSCOPS as a composite endpoint of death from CHD, nonfatal MI, or revascularization. In both the CARE and WOSCOPS analyses herein, the CVD endpoint was defined as a composite endpoint of CHD or stroke. […] Revascularization, which can include percutaneous transluminal coronary angioplasty (PTCA), stent placement, and coronary artery bypass graft (CABG), are medical interventions that indicate the presence of CHD.
Cohort and case-only study designs were used to identify SNPs associated with response to statin treatment.
For each SNP, a logistic regression model having treatment status as the dependent variable and SNP as the independent predictor variable was performed, with terms for age, sex and race included in the model as covariates. The anti-log of the regression coefficient corresponding to the SNP is an estimate of the synergy index (SI) (Davis et al., “Imputing gene-treatment interactions when the genotype distribution is unknown using case-only and putative placebo analyses-a new method for the Genetics of Hypertension Associated Treatment (GenHAT) study”, Statistics in Medicine 23: (2004), pages 2413-2427). The SI is a ratio of odds ratios: for example in the CARE and WOSCOPS studies, the SI represents the factor by which the odds-ratio of statin treatment, compared with placebo, among major homozygous individuals is multiplied by in order to obtain the odds-ratio of treatment vs. placebo among heterozygous individuals; and multiplied by a second time to obtain the odds-ratio of treatment vs. placebo in minor homozygous individuals. The case-only study design results in a valid estimate of the SI under the assumption that genotype and treatment are independent in the population. In a randomized clinical trial, genotype and treatment are independent by design. The p-value for the regression coefficient corresponding to the SNP results from a test of the null hypothesis that the regression coefficient is equal to zero (SI is equal to one) and thus small p-values indicate the SI is unlikely equal to one and that the effect of treatment likely differs by genotype.
A case-only study design was used to test whether the reduction of CHD events by statin therapy (for CARE and WOSCOPS studies) differed according to genotype (a treatment by SNP interaction) for each SNP evaluated in the study.

In the case of `CC[C@H](C)C(=O)O[C@H]1C[C@H](O)C=C2C=C[C@H](C)[C@H](CC[C@@H](O)C[C@@H](O)CC(=O)O)[C@H]21` [Pravastatin, pravastatin], the “CARE OR” value (rs7612715 allele A vs G (ref), Source cohort) is reported as 0.47, the “CARE OR” value (rs7625204 allele A vs G (ref), Source cohort) is reported as 1.51 and the “CARE OR” value (rs7629632 allele G vs A (ref), Source cohort) is reported as 1.56. For the same molecule, the OR (rs7639053 allele A ADD Imputed) was 1.506, the OR (rs7648163 allele C REC Imputed) was 1.993 and the OR (rs7653190 allele C ADD Imputed) was 1.504. For the same molecule, the OR (rs7653685 allele C DOM Genotyped) was 1.705, the “CARE OR” value (rs7671659 allele A vs G (ref), Source cohort) was 1.72 and the OR (rs7684899 allele C DOM Imputed) was 0.713. The OR (rs7701604 allele G ADD Imputed) was 0.187, the OR (rs7701604 allele G DOM Imputed) was 0.19 and the OR (rs7703676 allele C ADD Imputed) was 0.187. It also gave an OR (rs7703676 allele C DOM Imputed) of 0.19, an OR (rs7711358 allele A DOM Imputed) of 0.564 and an OR (rs7713251 allele C REC Imputed) of 2.098. For the same molecule, the OR (rs7737608 allele G DOM Imputed) was 1.904, the “CARE OR” value (rs7742508 allele A vs G (ref), Source cohort) was 2.19 and the OR (rs7762993 allele A ADD Imputed) was 1.726. For the same molecule, the OR (rs7762993 allele A DOM Imputed) was 2.011, the OR (rs7767265 allele G DOM Imputed) was 2.106 and the OR (rs7771264 allele T DOM Imputed) was 0.635. The OR (rs7795792 allele T REC Imputed) was 0.645, the OR (rs7806481 allele G REC Imputed) was 0.439 and the OR (rs7808536 allele G DOM Imputed) was 1.455. It also gave an OR (rs7814819 allele G ADD Imputed) of 2.408, an OR (rs7814819 allele G DOM Imputed) of 2.577 and an OR (rs7815952 allele T DOM Imputed) of 2.585. The OR (rs7834090 allele T DOM Imputed) was 2.585, the OR (rs7859250 allele C DOM Imputed) was 0.52 and the OR (rs7863577 allele A ADD Genotyped) was 0.48. The OR (rs7863577 allele A DOM Genotyped) was 0.479, the OR (rs7902140, allele C, ADD model, Imputed, NMISS 673) was 0.63 and the “CARE OR” value (rs7915250, A1 (non-ref) C, A2 (ref) G) was 0.69. The OR (rs7921834, allele C, DOM model, Imputed, NMISS 682) was 1.786, the OR (rs7939893, allele C, ADD model, Imputed, NMISS 682) was 0.707 and the OR (rs7939893, allele C, DOM model, Imputed, NMISS 682) was 0.641. The OR (rs7955901, allele C, ADD model, Imputed, NMISS 675) was 0.723, the OR (rs7955901, allele C, DOM model, Imputed, NMISS 675) was 0.582 and the OR (rs7956274, allele T, ADD model, Imputed, NMISS 677) was 0.74. It also gave an OR (rs7956274, allele T, DOM model, Imputed, NMISS 677) of 0.598, an OR (rs7957932, allele G, ADD model, Imputed, NMISS 671) of 0.738 and an OR (rs7957932, allele G, DOM model, Imputed, NMISS 671) of 0.57. The OR (rs7984294, allele A, DOM model, Imputed, NMISS 678) was 1.497, the OR (rs7994286, allele A, ADD model, Imputed, NMISS 674) was 0.538 and the OR (rs7994286, allele A, DOM model, Imputed, NMISS 674) was 0.5. It also gave an OR (rs8038229, allele A, ADD model, Genotyped, NMISS 682) of 0.809, an OR (rs8038229, allele A, DOM model, Genotyped, NMISS 682) of 0.742 and an OR (rs8043336, allele C, REC model, Imputed, NMISS 647) of 0.449. The OR (rs8054431, allele T, DOM model, Imputed, NMISS 652) was 1.625, the OR (rs8066502, allele T, DOM model, Imputed, NMISS 681) was 0.683 and the OR (rs8068714, allele T, DOM model, Imputed, NMISS 682) was 0.671. The “CARE OR” value (rs9292827 allele A vs G (ref), Source Caseonly) was 0.37, the OR (rs9301653, allele T, ADD model, Imputed, NMISS 682) was 0.518 and the OR (rs9301653, allele T, DOM model, Imputed, NMISS 682) was 0.474. It also gave an OR (rs9309988, allele G, DOM model, Imputed, NMISS 682) of 1.705, an OR (rs9309989, allele C, DOM model, Genotyped, NMISS 682) of 1.731 and an OR (rs9310221, allele A, DOM model, Imputed, NMISS 631) of 2.083. It also gave an OR (rs9327555, allele T, DOM model, Imputed, NMISS 682) of 0.56, an OR (rs9454967, allele G, ADD model, Imputed, NMISS 678) of 2.104 and an OR (rs9454967, allele G, DOM model, Imputed, NMISS 678) of 2.304. The OR (rs9471295, allele T, DOM model, Imputed, NMISS 682) was 1.569, the OR (rs9477007, allele A, ADD model, Imputed, NMISS 651) was 1.476 and the OR (rs9487279, allele T, DOM model, Imputed, NMISS 653) was 0.61. For the same molecule, the “CARE OR” value (rs9487284 allele A vs G (ref), Source cohort) was 0.61, the OR (rs9555973, allele G, ADD model, Imputed, NMISS 681) was 0.538 and the OR (rs9555973, allele G, DOM model, Imputed, NMISS 681) was 0.501. For the same molecule, the OR (rs9557510, allele G, ADD model, Imputed, NMISS 680) was 1.629, the OR (rs9557510, allele G, DOM model, Imputed, NMISS 680) was 1.768 and the OR (rs9560584, allele T, DOM model, Imputed, NMISS 660) was 0.489. For the same molecule, the OR (rs9588770, allele T, DOM model, Imputed, NMISS 680) was 0.529, the OR (rs9588848, allele C, ADD model, Imputed, NMISS 682) was 0.518 and the OR (rs9588848, allele C, DOM model, Imputed, NMISS 682) was 0.474. For the same molecule, the OR (rs9812206, allele G, ADD model, Imputed, NMISS 682) was 0.481 and the OR (rs9812206, allele G, DOM model, Imputed, NMISS 682) was 0.466.

Source: patent US10563263B2, “Genetic polymorphisms associated with statin response and cardiovascular diseases, methods of detection and uses thereof” (CELERA CORPORATION, priority 2010, dated 2020)
